Results reported in patent US20160222124A1.
These are yes or no findings as the source states them, for the method shown. Some binding calls cover weakened binding; strength is not graded here.

Columns and labels:
[1] = target: cynomolgus monkey CD40 (cynomolgus monkey) (UniProt G7PG38); experiment: flow cytometry, FITC-labeled antibody on cynomolgus platelets
[2] = target: cynomolgus monkey CD40 (cynomolgus monkey) (UniProt G7PG38); experiment: flow cytometry, directly labeled antibody, B cells and platelets in cynomolgus monkey whole blood

binding [1]	binding [2]	Binder
binds	–	2H11 (murine anti-CD40 antibody) (antibody, V domains shown) VH: EVQLQQSGAELVRPGASVKLSCTASGFNIKDYYVHWVKQRPEKGLEWIGRIDPEDGDSKYAPKFQGKATMTADTSSNTAYLHLSSLTSEDTAVYYCTTSYYVGTYGYWGQGTTLTVSS VL: QIVLTQSPAIMSASPGEKVTITCSASSSVSYMLWFQQKPGTSPKLWIYSTSNLASGVPARFGGSGSGTSYSLTISRMEAEDAATYYCQQRTFYPYTFGGGTKLEIK
–	binds	Antibody B (antibody, V domains shown) VH: EVQLVESGGGLVKPGGSLRLSCAASGFTFSDYGMHWVRQAPGKGLEWVAYISSGNRIIYYADTVKGRFTISRDNAKNSLYLQMNSLRAEDTAVYYCARQDGYRYAMDYWGQGTLVTVSS VL: DIVMTQSPDSLAVSLGEKVTINCKSSQSLLNSGNQKNYLTWHQQKPGQPPKLLIYWTSTRESGVPDRFSGSGSGTDFTLTISSLQAEDVAVYYCQNDYTYPLTFGGGTKVEIKR
